# Where a chain is given by its changes, count along the chain named. The list shows a part of the results. For some of these results: At the low end of the ranking the order means little. For some of these results: The exact form of the protein is not confirmed.
# Experiments:
# Details in all cases: yeast three-hybrid, YBZ-1, SC-Leu-His + 0.5 mM 3-AT, 4 days
# [1] = molecular target: T1, PUM1 PUF domain R1-QFR R2-VFQ R7-NPG S863Q + R864F + Q867R + N899V + Y900F + S1079N + N1080P + E1083G (UniProt Q14671)
# T1 sequence: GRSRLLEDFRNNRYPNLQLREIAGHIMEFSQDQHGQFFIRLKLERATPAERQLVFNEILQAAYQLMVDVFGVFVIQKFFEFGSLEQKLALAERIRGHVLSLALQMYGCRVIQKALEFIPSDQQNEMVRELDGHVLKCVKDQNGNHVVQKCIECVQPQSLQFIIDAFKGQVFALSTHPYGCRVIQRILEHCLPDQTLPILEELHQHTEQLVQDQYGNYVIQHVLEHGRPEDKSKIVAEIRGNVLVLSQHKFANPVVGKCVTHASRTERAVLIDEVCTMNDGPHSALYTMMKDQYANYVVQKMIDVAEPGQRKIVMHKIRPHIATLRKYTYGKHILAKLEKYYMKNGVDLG
# [2] = molecular target: T2, PUM1 PUF domain R2-VFQ R3-THE R4-TFR N899V + Y900F + C935T + R936H + Q939E + N971T + H972F + Q975R (UniProt Q14671)
# T2 sequence: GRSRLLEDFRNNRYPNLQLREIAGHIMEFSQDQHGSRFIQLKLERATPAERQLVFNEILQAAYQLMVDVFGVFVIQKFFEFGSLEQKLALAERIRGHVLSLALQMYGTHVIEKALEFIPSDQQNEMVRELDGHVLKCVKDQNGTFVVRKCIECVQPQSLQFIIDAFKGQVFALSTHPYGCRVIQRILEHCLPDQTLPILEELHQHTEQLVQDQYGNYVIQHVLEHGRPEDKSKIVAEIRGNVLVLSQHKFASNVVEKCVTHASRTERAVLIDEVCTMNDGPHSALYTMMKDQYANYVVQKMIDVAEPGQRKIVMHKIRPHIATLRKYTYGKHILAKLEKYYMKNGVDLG
# [3] = molecular target: T3, PUM1 PUF domain R3-THE R4-TFR C935T + R936H + Q939E + N971T + H972F + Q975R (UniProt Q14671)
# T3 sequence: T2 sequence with V72N, F73Y
# [4] = molecular target: T4, PUM1 PUF domain R3-THE R4-TFR R7-NPG C935T + R936H + Q939E + N971T + H972F + Q975R + S1079N + N1080P + E1083G (Homo sapiens) (UniProt Q14671)
# T4 sequence: T2 sequence with V72N, F73Y, S252N, N253P, E256G
# [5] = molecular target: T5, PUM1 PUF domain R5-PHQ R6-SWD C1007P + R1008H + N1043S + Y1044W + Q1047D (UniProt Q14671)
# T5 sequence: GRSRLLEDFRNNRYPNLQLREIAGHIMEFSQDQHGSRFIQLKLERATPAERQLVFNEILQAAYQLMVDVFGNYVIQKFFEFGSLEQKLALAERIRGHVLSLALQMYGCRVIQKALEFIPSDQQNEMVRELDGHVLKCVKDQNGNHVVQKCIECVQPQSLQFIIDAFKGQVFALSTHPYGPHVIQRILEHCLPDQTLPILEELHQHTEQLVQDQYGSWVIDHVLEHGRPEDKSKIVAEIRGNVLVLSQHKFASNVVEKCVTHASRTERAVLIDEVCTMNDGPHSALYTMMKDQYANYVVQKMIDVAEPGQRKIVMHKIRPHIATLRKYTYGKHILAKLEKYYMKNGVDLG
sequence,measurement,setting,value
GGCUAGAACUAGUGGAUCCCCCGGCGCCCGGCGGCUCGAGCCCGGGUAAGUUCGAAACGUCUGCAUGCCGCCGGGCGCCAUGCCUGCAGGUCGACUCUAGAAAACAUG,binding signal (log2 enrichment (interaction score)),[1],-4.69
same,binding signal (log2 enrichment (interaction score)),[2],-5.36
GGCUAGAACUAGUGGAUCCCCCGGCGCCCGGCGGCUCGAGCCCGGGUAAGUGCUCAGGGUCUGCAUGCCGCCGGGCGCCAUGCCUGCAGGUCGACUCUAGAAAACAUG,binding signal (log2 enrichment (interaction score)),[1],-4.44
same,binding signal (log2 enrichment (interaction score)),[2],-5.87
GGCUAGAACUAGUGGAUCCCCCGGCGCCCGGCGGCUCGAGCCCGGGUAAGAUGACGUAGUCUGCAUGCCGCCGGGCGCCAUGCCUGCAGGUCGACUCUAGAAAACAUG,binding signal (log2 enrichment (interaction score)),[1],-6.33
same,binding signal (log2 enrichment (interaction score)),[2],-5.94
GGCUAGAACUAGUGGAUCCCCCGGCGCCCGGCGGCUCGAGCCCGGGUAAGUUUUCUGAGUCUGCAUGCCGCCGGGCGCCAUGCCUGCAGGUCGACUCUAGAAAACAUG,binding signal (log2 enrichment (interaction score)),[1],-5.93
same,binding signal (log2 enrichment (interaction score)),[2],-5.97
GGCUAGAACUAGUGGAUCCCCCGGCGCCCGGCGGCUCGAGCCCGGGUAAGUAAGUGUAGUCUGCAUGCCGCCGGGCGCCAUGCCUGCAGGUCGACUCUAGAAAACAUG,binding signal (log2 enrichment (interaction score)),[1],-5.59
same,binding signal (log2 enrichment (interaction score)),[2],-5.12
GGCUAGAACUAGUGGAUCCCCCGGCGCCCGGCGGCUCGAGCCCGGGUAAGUUUGAGAAGUCUGCAUGCCGCCGGGCGCCAUGCCUGCAGGUCGACUCUAGAAAACAUG,binding signal (log2 enrichment (interaction score)),[1],< -7.02
same,binding signal (log2 enrichment (interaction score)),[2],-4.8
GGCUAGAACUAGUGGAUCCCCCGGCGCCCGGCGGCUCGAGCCCGGGUAAGCUUUUGUGGUCUGCAUGCCGCCGGGCGCCAUGCCUGCAGGUCGACUCUAGAAAACAUG,binding signal (log2 enrichment (interaction score)),[1],-5.59
same,binding signal (log2 enrichment (interaction score)),[2],-5.52
GGCUAGAACUAGUGGAUCCCCCGGCGCCCGGCGGCUCGAGCCCGGGUAAGUUGGCGAUGUCUGCAUGCCGCCGGGCGCCAUGCCUGCAGGUCGACUCUAGAAAACAUG,binding signal (log2 enrichment (interaction score)),[1],-5.92
same,binding signal (log2 enrichment (interaction score)),[2],< -6.21
GGCUAGAACUAGUGGAUCCCCCGGCGCCCGGCGGCUCGAGCCCGGGUAAGUUGGAGACGUCUGCAUGCCGCCGGGCGCCAUGCCUGCAGGUCGACUCUAGAAAACAUG,binding signal (log2 enrichment (interaction score)),[1],-6.13
same,binding signal (log2 enrichment (interaction score)),[2],-5.88
GGCUAGAACUAGUGGAUCCCCCGGCGCCCGGCGGCUCGAGCCCGGGUAAGUUACAGUGGUCUGCAUGCCGCCGGGCGCCAUGCCUGCAGGUCGACUCUAGAAAACAUG,binding signal (log2 enrichment (interaction score)),[1],-6.33
same,binding signal (log2 enrichment (interaction score)),[2],-5.2
GGCUAGAACUAGUGGAUCCCCCGGCGCCCGGCGGCUCGAGCCCGGGUAAGGUUAAGUGGUCUGCAUGCCGCCGGGCGCCAUGCCUGCAGGUCGACUCUAGAAAACAUG,binding signal (log2 enrichment (interaction score)),[1],-6.4
same,binding signal (log2 enrichment (interaction score)),[2],-5.48
GGCUAGAACUAGUGGAUCCCCCGGCGCCCGGCGGCUCGAGCCCGGGUAAGUUUAUAAUGUCUGCAUGCCGCCGGGCGCCAUGCCUGCAGGUCGACUCUAGAAAACAUG,binding signal (log2 enrichment (interaction score)),[1],< -6.52
same,binding signal (log2 enrichment (interaction score)),[2],-4.45
GGCUAGAACUAGUGGAUCCCCCGGCGCCCGGCGGCUCGAGCCCGGGUAAGCUGGAUAAGUCUGCAUGCCGCCGGGCGCCAUGCCUGCAGGUCGACUCUAGAAAACAUG,binding signal (log2 enrichment (interaction score)),[1],-5.24
same,binding signal (log2 enrichment (interaction score)),[2],-5.42
GGCUAGAACUAGUGGAUCCCCCGGCGCCCGGCGGCUCGAGCCCGGGUAAGGUCAGAACGUCUGCAUGCCGCCGGGCGCCAUGCCUGCAGGUCGACUCUAGAAAACAUG,binding signal (log2 enrichment (interaction score)),[1],< -6.42
same,binding signal (log2 enrichment (interaction score)),[2],-5.29
GGCUAGAACUAGUGGAUCCCCCGGCGCCCGGCGGCUCGAGCCCGGGUAAGGUUCGAUAGUCUGCAUGCCGCCGGGCGCCAUGCCUGCAGGUCGACUCUAGAAAACAUG,binding signal (log2 enrichment (interaction score)),[1],-5.13
same,binding signal (log2 enrichment (interaction score)),[2],-4.53
GGCUAGAACUAGUGGAUCCCCCGGCGCCCGGCGGCUCGAGCCCGGGUAAGAUUGAGUCGUCUGCAUGCCGCCGGGCGCCAUGCCUGCAGGUCGACUCUAGAAAACAUG,binding signal (log2 enrichment (interaction score)),[1],-5.67
same,binding signal (log2 enrichment (interaction score)),[2],-5.88
GGCUAGAACUAGUGGAUCCCCCGGCGCCCGGCGGCUCGAGCCCGGGUAAGUCGAAGACGUCUGCAUGCCGCCGGGCGCCAUGCCUGCAGGUCGACUCUAGAAAACAUG,binding signal (log2 enrichment (interaction score)),[1],-4.6
same,binding signal (log2 enrichment (interaction score)),[2],-4.88
GGCUAGAACUAGUGGAUCCCCCGGCGCCCGGCGGCUCGAGCCCGGGUAAGUGGAAAUUGUCUGCAUGCCGCCGGGCGCCAUGCCUGCAGGUCGACUCUAGAAAACAUG,binding signal (log2 enrichment (interaction score)),[1],-3.11
same,binding signal (log2 enrichment (interaction score)),[2],< -5.77
same,binding signal (log2 enrichment (interaction score)),[3],-7.84
same,binding signal (log2 enrichment (interaction score)),[4],-1.28
same,binding signal (log2 enrichment (interaction score)),[5],-2.12
GGCUAGAACUAGUGGAUCCCCCGGCGCCCGGCGGCUCGAGCCCGGGUAAGUAGACAUAGUCUGCAUGCCGCCGGGCGCCAUGCCUGCAGGUCGACUCUAGAAAACAUG,binding signal (log2 enrichment (interaction score)),[1],-5.55
same,binding signal (log2 enrichment (interaction score)),[2],-5.92
same,binding signal (log2 enrichment (interaction score)),[3],< -7.57
GGCUAGAACUAGUGGAUCCCCCGGCGCCCGGCGGCUCGAGCCCGGGUAAGUUUAUACAGUCUGCAUGCCGCCGGGCGCCAUGCCUGCAGGUCGACUCUAGAAAACAUG,binding signal (log2 enrichment (interaction score)),[1],-5.53
same,binding signal (log2 enrichment (interaction score)),[2],-5.03
same,binding signal (log2 enrichment (interaction score)),[3],-5.8
same,binding signal (log2 enrichment (interaction score)),[4],-1.43

# An excerpt of these results, tab-delimited.
sequence	measurement	setting	value
GGCUAGAACUAGUGGAUCCCCCGGCGCCCGGCGGCUCGAGCCCGGGUAAGUUUUCUGAGUCUGCAUGCCGCCGGGCGCCAUGCCUGCAGGUCGACUCUAGAAAACAUG	binding signal (log2 enrichment (interaction score))	[2]	-5.97
GGCUAGAACUAGUGGAUCCCCCGGCGCCCGGCGGCUCGAGCCCGGGUAAGAUUGAGUCGUCUGCAUGCCGCCGGGCGCCAUGCCUGCAGGUCGACUCUAGAAAACAUG	binding signal (log2 enrichment (interaction score))	[2]	-5.88
GGCUAGAACUAGUGGAUCCCCCGGCGCCCGGCGGCUCGAGCCCGGGUAAGUCGAAGACGUCUGCAUGCCGCCGGGCGCCAUGCCUGCAGGUCGACUCUAGAAAACAUG	binding signal (log2 enrichment (interaction score))	[2]	-4.88
